Results are given in words; binding and its absence hold for the method and conditions named. Binding can be weak; no strength is given. For some assays here: Where a sequence is shown, tags or fusion partners need not be part of it. For some assays here: Binding seen in cells or lysates may run through a third protein.
B1: AD-Tm-2^2 (protein, UniProt Q71BG9 1-861)
chain: MAEILLTSVINKSVEIAGNLLIQEGKRLYWLKEDIDWLQREMRHIRSYVDNAKAKEAGGDSRVKNLLKDIQELAGDVEDLLDDFLPKIQQSNKFNYCLKRSSFADEFAMEIEKIKRRVVDIDRIRKTYNIIDTDNNNDDCVLLDRRRLFLHADETEIIGLDDDFNMLQAKLLNQDLHYGVVSIVGMPGLGKTTLAKKLYRLIRDQFECSGLVYVSQQPRASEILLDIAKQIGLTEQKMKENLEDNLRSLLKIKRYVILLDDIWDVEIWDDLKLVLPECDSKVGSRMIITSRNSNVGRYIGGESSLHALQPLESEKSFELFTKKIFNFDDNNSWANASPDLVNIGRNIVGRCGGIPLAIVVTAGMLRARERTEHAWNRVLESMGHKVQDGCAKVLALSYNDLPIASRPCFLYFGLYPEDHEIRAFDLINMWIAEKFIVVNSGNRREAEDLAEDVLNDLVSRNLIQLAKRTYNGRISSCRIHDLLHSLCVDLAKESNFFHTAHDAFGDPGNVARLRRITFYSDNVMIEFFRSNPKLEKLRVLFCFAKDPSIFSHMAYFDFKLLHTLVVVMSQSFQAYVTIPSKFGNMTCLRYLRLEGNICGKLPNSIVKLTRLETIDIDRRSLIQPPSGVWESKHLRHLCYRDYGQACNSCFSISSFYPNIYSLHPNNLQTLMWIPDKFFEPRLLHRLINLRKLGILGVSNSTVKMLSIFSPVLKALEVLKLSFSSDPSEQIKLSSYPHIAKLHLNVNRTMALNSQSFPPNLIKLTLAYFSVDRYILAVLKTFPKLRKLKMFICKYNEEKMDLSGEANGYSFPQLEVLHIHSPNGLSEVTCTDDVSMPKLKKLLLTGFHCRISLSERLKKLSK
B2: Tm-2^2-Myc (protein, UniProt Q71BG9 1-861)
chain: B1 chain

Protein sequences, listed by entry. Tags and fused reporters are not part of them. Lines headed by an entry give the natural chain unless they say otherwise; changes in a name come on top.
UniProt Q84UV7: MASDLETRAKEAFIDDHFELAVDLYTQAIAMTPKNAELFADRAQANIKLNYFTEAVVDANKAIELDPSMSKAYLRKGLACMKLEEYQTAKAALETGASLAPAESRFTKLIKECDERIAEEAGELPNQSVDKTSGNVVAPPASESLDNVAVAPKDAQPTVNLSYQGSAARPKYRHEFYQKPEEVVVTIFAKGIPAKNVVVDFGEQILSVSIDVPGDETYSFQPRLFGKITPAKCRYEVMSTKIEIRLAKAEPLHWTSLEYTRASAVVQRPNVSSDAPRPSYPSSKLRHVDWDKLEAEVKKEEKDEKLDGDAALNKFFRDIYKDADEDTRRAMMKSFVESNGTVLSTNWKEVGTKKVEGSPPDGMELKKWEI
UniProt U5HUF9: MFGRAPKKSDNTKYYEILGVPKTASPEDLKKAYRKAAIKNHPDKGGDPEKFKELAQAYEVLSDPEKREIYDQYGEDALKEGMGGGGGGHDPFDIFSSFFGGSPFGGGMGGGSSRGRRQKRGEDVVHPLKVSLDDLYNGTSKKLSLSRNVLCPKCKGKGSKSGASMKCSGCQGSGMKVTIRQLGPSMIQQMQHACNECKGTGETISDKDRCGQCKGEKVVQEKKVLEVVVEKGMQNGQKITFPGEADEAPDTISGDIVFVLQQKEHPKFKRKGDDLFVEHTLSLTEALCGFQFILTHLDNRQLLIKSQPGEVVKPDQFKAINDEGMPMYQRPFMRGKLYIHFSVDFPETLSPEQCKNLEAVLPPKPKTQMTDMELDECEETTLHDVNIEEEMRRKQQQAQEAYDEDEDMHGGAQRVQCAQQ
UniProt U5Q1Q7: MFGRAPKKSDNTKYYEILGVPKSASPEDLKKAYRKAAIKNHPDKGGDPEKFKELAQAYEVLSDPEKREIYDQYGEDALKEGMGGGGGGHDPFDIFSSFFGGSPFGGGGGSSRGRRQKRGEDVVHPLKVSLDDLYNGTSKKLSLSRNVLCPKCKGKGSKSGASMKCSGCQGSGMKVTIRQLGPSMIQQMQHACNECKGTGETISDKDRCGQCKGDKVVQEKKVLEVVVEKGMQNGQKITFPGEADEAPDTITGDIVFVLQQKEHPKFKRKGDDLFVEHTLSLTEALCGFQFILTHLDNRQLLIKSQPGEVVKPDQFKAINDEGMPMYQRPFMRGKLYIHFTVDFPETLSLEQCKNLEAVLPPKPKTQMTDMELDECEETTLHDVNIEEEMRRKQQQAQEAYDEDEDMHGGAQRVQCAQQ
UniProt U5PY20: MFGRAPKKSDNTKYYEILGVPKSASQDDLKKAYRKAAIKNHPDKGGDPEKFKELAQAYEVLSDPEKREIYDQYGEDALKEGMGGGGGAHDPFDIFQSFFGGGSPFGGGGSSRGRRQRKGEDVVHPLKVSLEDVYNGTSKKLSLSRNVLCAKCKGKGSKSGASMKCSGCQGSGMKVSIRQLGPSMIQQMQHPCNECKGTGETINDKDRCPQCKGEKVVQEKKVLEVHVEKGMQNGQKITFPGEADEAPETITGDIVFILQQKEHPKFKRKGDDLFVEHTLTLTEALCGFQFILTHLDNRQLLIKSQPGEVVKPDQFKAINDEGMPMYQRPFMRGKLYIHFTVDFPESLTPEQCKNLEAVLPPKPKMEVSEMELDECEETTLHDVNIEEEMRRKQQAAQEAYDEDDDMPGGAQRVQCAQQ
UniProt U5Q1N6: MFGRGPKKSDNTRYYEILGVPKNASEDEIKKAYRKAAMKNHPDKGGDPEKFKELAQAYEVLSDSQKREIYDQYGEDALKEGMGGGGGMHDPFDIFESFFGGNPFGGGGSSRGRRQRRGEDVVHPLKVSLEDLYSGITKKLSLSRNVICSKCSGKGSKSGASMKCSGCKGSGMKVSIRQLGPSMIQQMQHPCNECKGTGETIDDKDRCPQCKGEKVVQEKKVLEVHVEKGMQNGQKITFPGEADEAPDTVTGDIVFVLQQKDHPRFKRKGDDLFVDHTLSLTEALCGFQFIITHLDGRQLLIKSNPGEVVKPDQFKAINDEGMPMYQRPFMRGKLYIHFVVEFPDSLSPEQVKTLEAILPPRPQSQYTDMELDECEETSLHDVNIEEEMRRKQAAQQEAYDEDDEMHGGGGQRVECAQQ
UniProt U5PY93: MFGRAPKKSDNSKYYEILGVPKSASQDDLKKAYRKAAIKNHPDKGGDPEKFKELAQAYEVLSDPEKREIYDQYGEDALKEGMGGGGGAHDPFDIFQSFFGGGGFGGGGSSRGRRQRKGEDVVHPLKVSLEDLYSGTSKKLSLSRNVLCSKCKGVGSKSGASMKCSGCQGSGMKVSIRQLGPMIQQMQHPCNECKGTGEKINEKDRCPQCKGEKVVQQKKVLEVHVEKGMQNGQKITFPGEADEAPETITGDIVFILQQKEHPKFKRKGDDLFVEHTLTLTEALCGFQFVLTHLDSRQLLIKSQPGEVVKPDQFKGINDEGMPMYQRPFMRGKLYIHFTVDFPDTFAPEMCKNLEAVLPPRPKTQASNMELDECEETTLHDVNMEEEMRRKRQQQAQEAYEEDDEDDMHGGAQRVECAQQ
UniProt U5Q1R1: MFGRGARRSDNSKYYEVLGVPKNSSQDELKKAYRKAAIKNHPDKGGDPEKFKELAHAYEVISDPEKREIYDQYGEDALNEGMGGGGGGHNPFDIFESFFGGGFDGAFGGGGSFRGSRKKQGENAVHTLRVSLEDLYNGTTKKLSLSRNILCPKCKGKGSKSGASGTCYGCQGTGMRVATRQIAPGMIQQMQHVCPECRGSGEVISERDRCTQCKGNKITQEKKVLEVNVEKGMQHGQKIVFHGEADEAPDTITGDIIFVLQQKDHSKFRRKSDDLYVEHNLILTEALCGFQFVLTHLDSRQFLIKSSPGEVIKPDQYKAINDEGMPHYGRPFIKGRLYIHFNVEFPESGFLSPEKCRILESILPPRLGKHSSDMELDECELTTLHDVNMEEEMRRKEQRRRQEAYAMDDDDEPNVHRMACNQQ

The molecules below were run against BD-NbSGT1 (Nicotiana benthamiana) (UniProt Q84UV7) (assay: two-hybrid; LexA DNA binding domain baits and B42 activation domain preys under galactose-inducible promoters; growth on Leu- plates, X-gal on Gal/Raf, beta-galactosidase activity; 28°C for 5 days).

| Molecule | binding |
| --- | --- |
| AD-NbMIP1.1a (from UniProt U5HUF9) | binds |

Each molecule was assayed against T1, BD-Tm-2^2-FL (tomato) (UniProt Q71BG9) in the same assay as above.
T1 sequence: B1 chain

| Molecule | binding |
| --- | --- |
| AD-NbMIP1.1b (from UniProt U5Q1Q7) | binds |
| AD-NbMIP1L1 (Nicotiana benthamiana) | no binding |
| AD-NbMIP1.4a (Nicotiana benthamiana) | binds |
| AD-NbMIP1.3 (from UniProt U5PY20) | binds |
| AD-NbMIP1.1a (from UniProt U5HUF9) | binds |
| AD-NbMIP1.4b (from UniProt U5Q1N6) | binds |
| AD-NbMIP1.2 (from UniProt U5PY93) | binds |

What follows are molecules tested against NbSGT1-nLUC (Nicotiana benthamiana) (UniProt Q84UV7) (assay: split reporter; firefly luciferase complementation imaging (LCI); nLUC and cLUC fusions co-expressed by agroinfiltration in N. benthamiana leaves; 48-72 hpi; 1 mM luciferin).

| Molecule | binding |
| --- | --- |
| NbMIP1.4b-cLUC (from UniProt U5Q1N6) | binds |
| NbMIP1.3-cLUC (from UniProt U5PY20) | binds |
| NbMIP1.2-cLUC (from UniProt U5PY93) | binds |
| NbMIP1L1-cLUC (from UniProt U5Q1R1) | binds weakly |
| NbMIP1.1b-cLUC (from UniProt U5Q1Q7) | binds |

These molecules were tested against T2, Tm-2^2-cLUC (tomato) (UniProt Q71BG9) in the same assay as above.
T2 sequence: B1 chain

| Molecule | binding |
| --- | --- |
| nLUC-NbMIP1.1a (from UniProt U5HUF9) | binds |
| nLUC-NbMIP1.4a (Nicotiana benthamiana) | binds |
| nLUC-NbMIP1.2 (Nicotiana benthamiana) | binds |
| nLUC-NbMIP1L1 (Nicotiana benthamiana) | no binding |
| nLUC-NbMIP1.1b (Nicotiana benthamiana) | binds |
| nLUC-NbMIP1.4b (Nicotiana benthamiana) | binds |
| nLUC-NbMIP1.3 (Nicotiana benthamiana) | binds |

Biological target: BD-NbSGT1 (Nicotiana benthamiana) (UniProt Q84UV7)
Assay: two-hybrid; LexA DNA binding domain baits and B42 activation domain preys under galactose-inducible promoters; growth on Leu- plates, X-gal on Gal/Raf, beta-galactosidase activity; 28°C for 5 days
Remark: another data set of the same source

| Molecule | binding |
| --- | --- |
| B1 | binds |

What follows are molecules tested against NbSGT1-HA (Nicotiana benthamiana) (assay: co-IP; two tagged proteins co-expressed by agroinfiltration in N. benthamiana leaves; lysates at 48 hpi (2 dpi) precipitated with anti-HA; anti-Myc blot; IP buffer 25 mM Tris pH 7.5, 150 mM NaCl, 1 mM EDTA, 10% glycerol, 0.15% NP-40).

| Molecule | binding |
| --- | --- |
| B2 | binds |

What follows are molecules tested against T3, Tm-2^2-HA (tomato) (UniProt Q71BG9) in the same assay as above.
T3 sequence: B1 chain

| Molecule | binding |
| --- | --- |
| NbMIP1.1a-Myc (Nicotiana benthamiana) | binds |
